Assay results reported in the supplement of paper PMC8728848.
This is one part of the list.

Experiments:
Assay in all cases: glycan array binding signal (z-score within array); higher = stronger binding
Details in all cases: glycan notation: IUPAC condensed, linker removed
[1] = target: GlcNAc(a1-4)Gal(b1-4)GalNAc
In short: (§1)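 The binding signal is a Z-score computed within each array and averaged over linkers. Arrays of the same protein sequence at different concentrations or buffers were also averaged together. Data originate from 3228 arrays in the Consortium for Functional Glycomics database, kept only where the protein sequence was available.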

[2] = target: GlcNAc(a1-4)Gal(b1-4)GlcNAc
In short: as §1

[3] = target: GlcNAc(a1-4)Gal(b1-4)GlcNAc(b1-3)Gal(b1-4)Glc
In short: as §1

[4] = target: GlcNAc(a1-4)Gal(b1-4)GlcNAc(b1-3)Gal(b1-4)GlcNAc
In short: as §1

[5] = target: GlcNAc(a1-4)Gal(b1-4)GlcNAc(b1-3)Gal(b1-4)GlcNAc(b1-3)Gal(b1-4)GlcNAc
In short: as §1

[6] = target: GlcNAc(a1-4)Gal(b1-4)GlcNAc(b1-3)Gal(b1-4)[Fuc(a1-3)]GlcNAc(b1-3)Gal(b1-4)[Fuc(a1-3)]GlcNAc
In short: as §1

[7] = target: GlcNAc(a1-6)Gal(b1-4)GlcNAc
In short: as §1

[8] = target: GlcNAc(b1-2)Gal(b1-3)GalNAc
In short: as §1

[9] = target: GlcNAc(b1-2)Man(a1-3)[GlcNAc(b1-2)Man(a1-6)]Man(b1-4)GlcNAc(b1-4)GlcNAc
In short: as §1

[10] = target: GlcNAc(b1-2)Man(a1-3)[GlcNAc(b1-2)Man(a1-6)]Man(b1-4)GlcNAc(b1-4)[Fuc(a1-6)]GlcNAc
In short: as §1

[11] = target: GlcNAc(b1-2)[GlcNAc(b1-4)]Man(a1-3)[GlcNAc(b1-2)Man(a1-6)]Man(b1-4)GlcNAc(b1-4)GlcNAc
In short: as §1

[12] = target: GlcNAc(b1-3)Gal
In short: as §1

[13] = target: GlcNAc(b1-3)Gal(b1-3)GalNAc
In short: as §1

[14] = target: GlcNAc(b1-3)Gal(b1-4)Glc
In short: as §1

[15] = target: GlcNAc(b1-3)Gal(b1-4)GlcNAc
In short: as §1

[16] = target: GlcNAc(b1-3)Gal(b1-4)GlcNAc(b1-3)Gal(b1-4)GlcNAc
In short: as §1

[17] = target: GlcNAc(b1-3)GalNAc
In short: as §1

[18] = target: GlcNAc(b1-3)Man
In short: as §1

[19] = target: GlcNAc(b1-3)[GlcNAc(b1-4)][GlcNAc(b1-6)]GlcNAc
In short: as §1

[20] = target: GlcNAc(b1-3)[GlcNAc(b1-6)]Gal(b1-4)GlcNAc
In short: as §1

[21] = target: GlcNAc(b1-3)[GlcNAc(b1-6)]GalNAc
In short: as §1

[22] = target: GlcNAc(b1-4)Gal(b1-4)GlcNAc
In short: as §1

[23] = target: GlcNAc(b1-4)GlcNAc
In short: as §1

[24] = target: GlcNAc(b1-4)GlcNAc(b1-4)GlcNAc
In short: as §1

[25] = target: GlcNAc(b1-4)GlcNAc(b1-4)GlcNAc(b1-4)GlcNAc(b1-4)GlcNAc
In short: as §1

[26] = target: GlcNAc(b1-4)GlcNAc(b1-4)GlcNAc(b1-4)GlcNAc(b1-4)GlcNAc(b1-4)GlcNAc
In short: as §1

[27] = target: GlcNAc(b1-4)[GlcNAc(b1-6)]GalNAc
In short: as §1

[28] = target: GlcNAc(b1-6)Gal(b1-4)GlcNAc
In short: as §1

[29] = target: GlcNAc(b1-6)GalNAc
In short: as §1

[30] = target: GlcNAc3Prop(b1-4)GlcNAc
In short: as §1

[31] = target: GlcNAc6S(b1-3)Gal(b1-4)GlcNAc
In short: as §1

[32] = target: Kdn(a2-3)Gal(b1-3)GalNAc
In short: as §1

[33] = target: Kdn(a2-3)Gal(b1-3)GlcNAc
In short: as §1

[34] = target: Kdn(a2-3)Gal(b1-4)Glc
In short: as §1

[35] = target: Kdn(a2-3)Gal(b1-4)GlcNAc
In short: as §1

[36] = target: Kdn(a2-3)Gal(b1-4)[Fuc(a1-3)]GlcNAc
In short: as §1

[37] = target: Kdn(a2-6)Gal(b1-4)GlcNAc
In short: as §1

[38] = target: Man(a1-2)Man(a1-2)Man(a1-3)Man
In short: as §1

[39] = target: Man(a1-2)Man(a1-2)Man(a1-6)[Man(a1-3)]Man
In short: as §1

[40] = target: Man(a1-2)Man(a1-3)Man
In short: as §1

[41] = target: Man(a1-2)Man(a1-3)[Man(a1-2)Man(a1-6)]Man
In short: as §1

[42] = target: Man(a1-2)Man(a1-3)[Man(a1-2)Man(a1-6)]Man(a1-6)[Man(a1-2)Man(a1-2)Man(a1-3)]Man
In short: as §1

[43] = target: Man(a1-2)Man(a1-3)[Man(a1-2)Man(a1-6)]Man(a1-6)[Man(a1-2)Man(a1-2)Man(a1-3)]Man(b1-4)GlcNAc(b1-4)GlcNAc
In short: as §1

[44] = target: Man(a1-2)Man(a1-3)[Man(a1-6)]Man(a1-6)[Man(a1-2)Man(a1-3)]Man(b1-4)GlcNAc(b1-4)GlcNAc
In short: as §1

[45] = target: Man(a1-2)Man(a1-6)[Man(a1-3)]Man(a1-6)[Man(a1-2)Man(a1-2)Man(a1-3)]Man
In short: as §1

[46] = target: Man(a1-2)Man(a1-6)[Man(a1-3)]Man(a1-6)[Man(a1-2)Man(a1-2)Man(a1-3)]Man(b1-4)GlcNAc(b1-4)GlcNAc
In short: as §1

[47] = target: Man(a1-3)[Man(a1-6)]Man
In short: as §1

[48] = target: Man(a1-3)[Man(a1-6)]Man(a1-6)[Man(a1-2)Man(a1-3)]Man(b1-4)GlcNAc(b1-4)GlcNAc
In short: as §1

[49] = target: Man(a1-3)[Man(a1-6)]Man(a1-6)[Man(a1-3)]Man
In short: as §1

[50] = target: Man(a1-3)[Man(a1-6)]Man(a1-6)[Man(a1-3)]Man(b1-4)GlcNAc(b1-4)GlcNAc
In short: as §1

[51] = target: Man(a1-3)[Man(a1-6)]Man(b1-4)GlcNAc(b1-4)GlcNAc
In short: as §1

[52] = target: Man(a1-6)Man
In short: as §1

[53] = target: Man(b1-4)GlcNAc
In short: as §1

[54] = target: Neu5Ac(a2-3)Gal
In short: as §1

[55] = target: Neu5Ac(a2-3)Gal(b1-3)GalNAc
In short: as §1

[56] = target: Neu5Ac(a2-3)Gal(b1-3)GalNAc(b1-3)Gal(a1-4)Gal(b1-4)Glc
In short: as §1

[57] = target: Neu5Ac(a2-3)Gal(b1-3)GalNAc(b1-4)[Neu5Ac(a2-3)]Gal(b1-4)Glc
In short: as §1

[58] = target: Neu5Ac(a2-3)Gal(b1-3)GalNAc6S
In short: as §1

[59] = target: Neu5Ac(a2-3)Gal(b1-3)GlcNAc
In short: as §1

[60] = target: Neu5Ac(a2-3)Gal(b1-3)GlcNAc(b1-2)Man(a1-3)[Neu5Ac(a2-3)Gal(b1-3)GlcNAc(b1-2)Man(a1-6)]Man(b1-4)GlcNAc(b1-4)GlcNAc
In short: as §1

[61] = target: Neu5Ac(a2-3)Gal(b1-3)GlcNAc(b1-3)Gal(b1-3)GlcNAc
In short: as §1

[62] = target: Neu5Ac(a2-3)Gal(b1-3)GlcNAc(b1-3)Gal(b1-4)GlcNAc
In short: as §1

[63] = target: Neu5Ac(a2-3)Gal(b1-3)GlcNAc(b1-3)GalNAc
In short: as §1

[64] = target: Neu5Ac(a2-3)Gal(b1-3)GlcNAc6S
In short: as §1

[65] = target: Neu5Ac(a2-3)Gal(b1-3)[Fuc(a1-4)]GlcNAc
In short: as §1

[66] = target: Neu5Ac(a2-3)Gal(b1-3)[Fuc(a1-4)]GlcNAc(b1-3)Gal(b1-3)[Fuc(a1-4)]GlcNAc
In short: as §1

[67] = target: Neu5Ac(a2-3)Gal(b1-3)[Fuc(a1-4)]GlcNAc(b1-3)Gal(b1-4)[Fuc(a1-3)]GlcNAc
In short: as §1

[68] = target: Neu5Ac(a2-3)Gal(b1-3)[Neu5Ac(a2-3)Gal(b1-4)]GlcNAc
In short: as §1

[69] = target: Neu5Ac(a2-3)Gal(b1-3)[Neu5Ac(a2-6)]GalNAc
In short: as §1

[70] = target: Neu5Ac(a2-3)Gal(b1-4)Glc
In short: as §1

B1: SRS2 (Toxoplasma gondii), O15695 (protein)
chain: MATRASLARQKTGAACLAVLTASPSVVAAKPWKRWVGVSVILASAFAVGVSAGPPYRYEPEKFTCRPKKGILSQWVSLLYQVQHNITFACEEATPVPTTLISEEHGLMVCAENMTPEECEANPAPLSAFLPGATKEWVTGDSVLTGLKISVPESQYPANAKSFRVGCRHNTKTGNTCMLTIHVEPRDPAVERQEARCSYTENSTLPKIFVTKDSNTMTLACGPHGAPMPESYTENYCSTPDTCDEKPFTSVIPGYLSKWFFGDPKSPLGARVRIPPEQIPSSPQINYFGCTGPTEGEGPKYNCTVPVPLGGGDPSEGSRPGGGSGGGKRGGGQGGGGSLAGFDFRQGSARHSLPSRMALSASALLAMTALAY
glycan array binding signal (z-score) [1]: -0.448
glycan array binding signal (z-score) [2]: -0.377
glycan array binding signal (z-score) [3]: -0.592
glycan array binding signal (z-score) [4]: -0.751
glycan array binding signal (z-score) [5]: -0.61
glycan array binding signal (z-score) [6]: 2.07
glycan array binding signal (z-score) [7]: -0.634
glycan array binding signal (z-score) [8]: -0.491
glycan array binding signal (z-score) [9]: -0.439
glycan array binding signal (z-score) [10]: 14.3
glycan array binding signal (z-score) [11]: -0.011
glycan array binding signal (z-score) [12]: -0.133
glycan array binding signal (z-score) [13]: -0.462
glycan array binding signal (z-score) [14]: -0.449
glycan array binding signal (z-score) [15]: -0.083
glycan array binding signal (z-score) [16]: -0.623
glycan array binding signal (z-score) [17]: -0.462
glycan array binding signal (z-score) [18]: 1.2
glycan array binding signal (z-score) [19]: -0.157
glycan array binding signal (z-score) [20]: -0.333
glycan array binding signal (z-score) [21]: -1.03
glycan array binding signal (z-score) [22]: -0.247
glycan array binding signal (z-score) [23]: 0.092
glycan array binding signal (z-score) [24]: -0.384
glycan array binding signal (z-score) [25]: 0.455
glycan array binding signal (z-score) [26]: -1.22
glycan array binding signal (z-score) [27]: 0.379
glycan array binding signal (z-score) [28]: 0.925
glycan array binding signal (z-score) [29]: -0.782
glycan array binding signal (z-score) [30]: 0.829
glycan array binding signal (z-score) [31]: -0.047
glycan array binding signal (z-score) [32]: 0.419
glycan array binding signal (z-score) [33]: 0.255
glycan array binding signal (z-score) [34]: 0.049
glycan array binding signal (z-score) [35]: 0.163
glycan array binding signal (z-score) [36]: 1.08
glycan array binding signal (z-score) [37]: -0.107
glycan array binding signal (z-score) [38]: 0.449
glycan array binding signal (z-score) [39]: 0.396
glycan array binding signal (z-score) [40]: 0.173
glycan array binding signal (z-score) [41]: -0.397
glycan array binding signal (z-score) [42]: -1.13
glycan array binding signal (z-score) [43]: -0.045
glycan array binding signal (z-score) [44]: -0.726
glycan array binding signal (z-score) [45]: 0.304
glycan array binding signal (z-score) [46]: -0.189
glycan array binding signal (z-score) [47]: 0.552
glycan array binding signal (z-score) [48]: -0.774
glycan array binding signal (z-score) [49]: 0.449
glycan array binding signal (z-score) [50]: 0.017
glycan array binding signal (z-score) [51]: -0.436
glycan array binding signal (z-score) [52]: 0.14
glycan array binding signal (z-score) [53]: 0.435
glycan array binding signal (z-score) [54]: 1.06
glycan array binding signal (z-score) [55]: -0.48
glycan array binding signal (z-score) [56]: -0.145
glycan array binding signal (z-score) [57]: 0.576
glycan array binding signal (z-score) [58]: -0.649
glycan array binding signal (z-score) [59]: 0.115
glycan array binding signal (z-score) [60]: -0.553
glycan array binding signal (z-score) [61]: 0.425
glycan array binding signal (z-score) [62]: -0.981
glycan array binding signal (z-score) [63]: 1.3
glycan array binding signal (z-score) [64]: 0.196
glycan array binding signal (z-score) [65]: -0.942
glycan array binding signal (z-score) [66]: 0.672
glycan array binding signal (z-score) [67]: -0.397
glycan array binding signal (z-score) [68]: -0.114
glycan array binding signal (z-score) [69]: 0.2
glycan array binding signal (z-score) [70]: 0.598
